{"sequences": {"note": "By UniProt entry, the sequences of proteins in these tests, tags left out.", "UniProt Q0JBA9, entry or part of it": "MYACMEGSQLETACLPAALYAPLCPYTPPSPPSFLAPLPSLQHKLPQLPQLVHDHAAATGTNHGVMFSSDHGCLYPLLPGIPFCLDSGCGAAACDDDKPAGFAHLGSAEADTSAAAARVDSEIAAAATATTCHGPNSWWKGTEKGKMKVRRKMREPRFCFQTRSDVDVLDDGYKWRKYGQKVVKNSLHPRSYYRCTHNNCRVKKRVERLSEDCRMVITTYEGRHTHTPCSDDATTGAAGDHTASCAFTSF"}, "source": "paper PMC7819943", "about": "“Rice protein-binding microarrays: a tool to detect cis-acting elements near promoter regions in rice”", "note": "The list shows a part of the results."}
{"target": "OsWRKY34 (Oryza sativa, UniProt Q0JBA9 1-250)", "test": "protein-binding microarray (RPBM); PBS, 2% BSA, 51.3 ng/ul salmon testes DNA, 50 uM zinc acetate, 200 nM TF, 25 C, 1 h; high values mean tight binding", "conditions": "protein: recombinant; tags: N-terminal polyhistidine and DsRed monomer fusion (pET32a); label: CyDye5-dUTP incorporated in the synthesized complementary strand; 3' TTTTT single-stranded linker to array surface; dsDNA, one strand shown", "procedure,_shortened": "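Binding signal is reported as fluorescence intensity per feature (arbitrary units) from an Axon 4000B scanner. Incubation used 200 nM of each Ni–NTA-purified, N-terminally polyhistidine- and DsRed-fused transcription factor from E. coli BL21-CodonPlus on a double-stranded custom Agilent array for 1 h at 25 °C, with 50 µM zinc acetate in the buffer, followed by washing.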"}
{"sequence": "CAAGTTAGTGACTGCATGGTATCTCATCCATCCATTTTCCCGGAGTCACCTAGTGCAG", "binding signal": "9180 fluorescence intensity (a.u.)"}
{"sequence": "CTGTTCGTCGTGTATTGCTCCCTCTGTGCACGATTTGTTTCGGAGTCACCTAGTGCAG", "binding signal": "11600 fluorescence intensity (a.u.)"}
{"sequence": "AGCTGCATATGTCTGTGTGTCTCAGTACCATCACAGTATCCGGAGTCACCTAGTGCAG", "binding signal": "8270 fluorescence intensity (a.u.)"}
{"sequence": "AACACTGCTAGTCTGTTACTCTGTTAGGCTGCTGATTTTACGGAGTCACCTAGTGCAG", "binding signal": "8320 fluorescence intensity (a.u.)"}
{"sequence": "TCGTTTAATCATGCTCTAACTCGTAAATTTAACTTCAAAACGGAGTCACCTAGTGCAG", "binding signal": "8280 fluorescence intensity (a.u.)"}
{"sequence": "TCACGTCCGTTTTTATAACTTGCTTAACAGGATCTCTATACGGAGTCACCTAGTGCAG", "binding signal": "8030 fluorescence intensity (a.u.)"}
{"sequence": "GAAATTTTTCCCAGTTGTTTTCATTGCTTTTGGAGAGTTTCGGAGTCACCTAGTGCAG", "binding signal": "9670 fluorescence intensity (a.u.)"}
{"sequence": "TTGATTTCATACCACTTTCTCTCCTTCCCGTCATTTTTTCCGGAGTCACCTAGTGCAG", "binding signal": "8070 fluorescence intensity (a.u.)"}
{"sequence": "CCATCACTCCGGCACCCTCATGTCCACCGCCGACGGTCGTCGGAGTCACCTAGTGCAG", "binding signal": "9110 fluorescence intensity (a.u.)"}
{"sequence": "TGGCAAGCAGGTCTATTTGGGTAAGTTTCATTCATGTCCACGGAGTCACCTAGTGCAG", "binding signal": "8520 fluorescence intensity (a.u.)"}
{"sequence": "ACTCTGCCTGCCATTCACATGATCCAACCAGTCCCCATTGCGGAGTCACCTAGTGCAG", "binding signal": "8730 fluorescence intensity (a.u.)"}
{"sequence": "GGCGGCTTCTTCTCTAGGGTTCGTCTCGACTCGACTCGTCCGGAGTCACCTAGTGCAG", "binding signal": "9810 fluorescence intensity (a.u.)"}
{"sequence": "TGCTTGCCGTTCGTTCGTGTGTGTGTGCGTGTGCGTAAGCCGGAGTCACCTAGTGCAG", "binding signal": "11200 fluorescence intensity (a.u.)"}
{"sequence": "ACTTTGAATTGTTTTCTTTTGGGCCTTATCCAGATACCTGCGGAGTCACCTAGTGCAG", "binding signal": "9160 fluorescence intensity (a.u.)"}
{"sequence": "TTCGTTCAAATCCAGGTATTTTAGCGTGCAAGTCTAGTTACGGAGTCACCTAGTGCAG", "binding signal": "9660 fluorescence intensity (a.u.)"}
{"sequence": "CGCCACAGATTCACACCGCCTCGCCCCAAGCCACACACACCGGAGTCACCTAGTGCAG", "binding signal": "10400 fluorescence intensity (a.u.)"}
{"sequence": "TCCACCACATCCCACGCTTTTTACTGCCGCACACATAAGACGGAGTCACCTAGTGCAG", "binding signal": "8680 fluorescence intensity (a.u.)"}
{"sequence": "GCAGCCGCCGCCACCGCCTCCTCGCACCTCGTTTCTTCCACGGAGTCACCTAGTGCAG", "binding signal": "15100 fluorescence intensity (a.u.)"}
{"sequence": "GGATCGAATTGCCACATAAACGCCACGTCAATGCCACATCCGGAGTCACCTAGTGCAG", "binding signal": "8380 fluorescence intensity (a.u.)"}
{"sequence": "AGTAGTACTCATTCAATTACAACCATCCACCACTCACTTTCGGAGTCACCTAGTGCAG", "binding signal": "12400 fluorescence intensity (a.u.)"}
{"sequence": "CTCCTCGCCTTCTTCTCCATCTCCATCTCGCATCTTCTCTCGGAGTCACCTAGTGCAG", "binding signal": "11400 fluorescence intensity (a.u.)"}
{"sequence": "TTCGATGTTGCTTTTCGACTTTCGGTTGTTGGCCGGGGATCGGAGTCACCTAGTGCAG", "binding signal": "9370 fluorescence intensity (a.u.)"}
{"sequence": "CTCTCTCCGTATTATAATGTATGATGCCGTTGACTTTTTGCGGAGTCACCTAGTGCAG", "binding signal": "35200 fluorescence intensity (a.u.)"}
{"sequence": "ATACTAATGCTACTACAGCTGTACCCTGTATATATAGTTCCGGAGTCACCTAGTGCAG", "binding signal": "9360 fluorescence intensity (a.u.)"}
{"sequence": "CCTCAAAATTGCAGGGGCGGAGATGGGGATGGTAGTTTACCGGAGTCACCTAGTGCAG", "binding signal": "8620 fluorescence intensity (a.u.)"}
{"sequence": "AACCCTGGGTTTCCGTGTCTAACGTTTGACCGTCCGCCTTCGGAGTCACCTAGTGCAG", "binding signal": "12000 fluorescence intensity (a.u.)"}
{"sequence": "CATCCACCTCACCGTCCGCCTGTGTGGCGCTGCTTTTTTCCGGAGTCACCTAGTGCAG", "binding signal": "11500 fluorescence intensity (a.u.)"}
{"sequence": "CCCACCCACCCACTGCATTCATCTCTCCTCTCTATCTCTTCGGAGTCACCTAGTGCAG", "binding signal": "14100 fluorescence intensity (a.u.)"}
{"sequence": "GGTGTTGACCCGGTCTTTATCCAATATGACGCTTATATGGCGGAGTCACCTAGTGCAG", "binding signal": "9070 fluorescence intensity (a.u.)"}
{"sequence": "ATTTGTTTGTTTTTTTAATAAATGATGTTGTTGACTTTTACGGAGTCACCTAGTGCAG", "binding signal": "9030 fluorescence intensity (a.u.)"}
{"sequence": "TCCGCCCGACCGCCCCTACCGCAACCTGTAGCCGCTGATGCGGAGTCACCTAGTGCAG", "binding signal": "11100 fluorescence intensity (a.u.)"}
{"sequence": "CGCTGCCTTCCCCGTTCCCGGTCGCCGTCGCCACCGCCGGCGGAGTCACCTAGTGCAG", "binding signal": "10300 fluorescence intensity (a.u.)"}
{"sequence": "GTGCTGCCTCTCGTTCATCTCCGGCCTCACCTAATAATGACGGAGTCACCTAGTGCAG", "binding signal": "8520 fluorescence intensity (a.u.)"}
{"sequence": "TCCCATCGCCGGCCACTATTCCTCCCCTCCACTTCAATCGCGGAGTCACCTAGTGCAG", "binding signal": "8200 fluorescence intensity (a.u.)"}
{"sequence": "TGGGTTCCACATATTTTTTTTAATTTTGTTCTTATTCTAACGGAGTCACCTAGTGCAG", "binding signal": "8800 fluorescence intensity (a.u.)"}
{"sequence": "TACATACATAGCTGTGTTCGACACTCTTTTTCCCGACCCACGGAGTCACCTAGTGCAG", "binding signal": "9500 fluorescence intensity (a.u.)"}
{"sequence": "GACAACCCTAAACGCCGTTCTTATAGTGTTGACTCAGCGTCGGAGTCACCTAGTGCAG", "binding signal": "10100 fluorescence intensity (a.u.)"}
{"sequence": "ATACACACATATCCGCGCCATTATAAATTTGACAGCATTTCGGAGTCACCTAGTGCAG", "binding signal": "10500 fluorescence intensity (a.u.)"}
{"sequence": "CTATTTAAGCTGATGGAGAAGGGTGGGCAATTCACTTTATCGGAGTCACCTAGTGCAG", "binding signal": "10900 fluorescence intensity (a.u.)"}
{"sequence": "TAGGTCAGTTCGTTCGCTTTACTTCCTGATTTCGGAAATTCGGAGTCACCTAGTGCAG", "binding signal": "9460 fluorescence intensity (a.u.)"}
{"sequence": "AAACTGTTTAGCTGAGCTCTAGTTTTATCTTAATCTTAGACGGAGTCACCTAGTGCAG", "binding signal": "8380 fluorescence intensity (a.u.)"}
{"sequence": "CCTTCTCGCCGCACTCTGACATGATGTTCGCCGCAGCGAACGGAGTCACCTAGTGCAG", "binding signal": "8690 fluorescence intensity (a.u.)"}
{"sequence": "CTTTCTTGCAATTTTGGTCTTCTTTCCTTTTGATTTGGTTCGGAGTCACCTAGTGCAG", "binding signal": "9200 fluorescence intensity (a.u.)"}
{"sequence": "ATATCTTGTGTTCCTTGTTGTATACGTTGGTATACCCCTCCGGAGTCACCTAGTGCAG", "binding signal": "8580 fluorescence intensity (a.u.)"}
{"sequence": "AGACGTTTTGATTTTGGTCAAAGTTAAACTGTTTCAAGTTCGGAGTCACCTAGTGCAG", "binding signal": "8120 fluorescence intensity (a.u.)"}
{"sequence": "GATGTATAGTAAAATGTGAACTTTTTTTTATGGTTTTTTCCGGAGTCACCTAGTGCAG", "binding signal": "8910 fluorescence intensity (a.u.)"}
{"sequence": "AATATATACCACGTGCCGGAAACTCAGACTTAACGGACATCGGAGTCACCTAGTGCAG", "binding signal": "8790 fluorescence intensity (a.u.)"}
{"sequence": "ATGATTTTCTTTTCATGCCCGTACTTAATTTACTGCAGTACGGAGTCACCTAGTGCAG", "binding signal": "9770 fluorescence intensity (a.u.)"}
{"sequence": "CCATTTCTAGCTAGCTATACGATCGATCTATACATATATACGGAGTCACCTAGTGCAG", "binding signal": "11700 fluorescence intensity (a.u.)"}
{"sequence": "GTGGGTCCACTTGCTACACATACCACCCCACTTAAACTTTCGGAGTCACCTAGTGCAG", "binding signal": "8640 fluorescence intensity (a.u.)"}
{"sequence": "TAGAAGACCCCGAGTTAGACCTAATAGTTCGGCCCATATACGGAGTCACCTAGTGCAG", "binding signal": "8610 fluorescence intensity (a.u.)"}
{"sequence": "GGGCACTGTTTTTGTTTATTGGACTCCAGTCGCAAGTTCGCGGAGTCACCTAGTGCAG", "binding signal": "9030 fluorescence intensity (a.u.)"}
{"sequence": "GAGTTTTACTTCAGTGGCAATTTCTTTTATATAACTGGTTCGGAGTCACCTAGTGCAG", "binding signal": "8060 fluorescence intensity (a.u.)"}
{"sequence": "CACCTCGTTTTGCGTAAAACACTTGATCTTGATCTTTATCCGGAGTCACCTAGTGCAG", "binding signal": "11100 fluorescence intensity (a.u.)"}
